# Assay results reported in PubChem BioAssay (Tox21).
# Chains of the proteins cited; added tags and fusions are not shown. Lines headed by an entry give the natural chain unless they say otherwise; changes in a name come on top.
# UniProt P28223, whole entry, looked up: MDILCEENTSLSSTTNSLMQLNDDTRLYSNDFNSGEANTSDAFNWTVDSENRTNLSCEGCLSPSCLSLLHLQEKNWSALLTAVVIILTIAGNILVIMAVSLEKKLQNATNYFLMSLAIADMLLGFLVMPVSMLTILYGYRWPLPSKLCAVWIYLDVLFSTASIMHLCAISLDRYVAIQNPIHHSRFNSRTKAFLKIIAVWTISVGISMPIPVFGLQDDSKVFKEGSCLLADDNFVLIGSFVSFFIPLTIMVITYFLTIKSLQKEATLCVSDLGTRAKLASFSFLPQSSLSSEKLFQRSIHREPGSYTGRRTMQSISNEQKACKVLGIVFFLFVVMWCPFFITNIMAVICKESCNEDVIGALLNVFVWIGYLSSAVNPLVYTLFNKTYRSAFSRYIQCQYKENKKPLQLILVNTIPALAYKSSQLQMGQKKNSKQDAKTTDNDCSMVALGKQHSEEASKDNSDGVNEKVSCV
# UniProt P11229: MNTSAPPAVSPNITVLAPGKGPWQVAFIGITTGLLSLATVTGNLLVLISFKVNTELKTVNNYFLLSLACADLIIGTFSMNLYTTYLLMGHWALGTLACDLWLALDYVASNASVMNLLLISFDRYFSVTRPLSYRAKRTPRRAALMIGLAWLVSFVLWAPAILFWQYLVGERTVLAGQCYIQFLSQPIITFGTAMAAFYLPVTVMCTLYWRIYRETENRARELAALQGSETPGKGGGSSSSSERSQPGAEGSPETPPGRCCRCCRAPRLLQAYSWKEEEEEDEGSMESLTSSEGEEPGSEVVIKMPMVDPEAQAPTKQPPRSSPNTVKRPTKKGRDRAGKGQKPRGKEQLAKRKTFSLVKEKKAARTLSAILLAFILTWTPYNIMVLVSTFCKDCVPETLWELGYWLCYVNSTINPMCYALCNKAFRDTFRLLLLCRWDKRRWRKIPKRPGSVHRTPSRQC
# UniProt P14416, whole entry, looked up: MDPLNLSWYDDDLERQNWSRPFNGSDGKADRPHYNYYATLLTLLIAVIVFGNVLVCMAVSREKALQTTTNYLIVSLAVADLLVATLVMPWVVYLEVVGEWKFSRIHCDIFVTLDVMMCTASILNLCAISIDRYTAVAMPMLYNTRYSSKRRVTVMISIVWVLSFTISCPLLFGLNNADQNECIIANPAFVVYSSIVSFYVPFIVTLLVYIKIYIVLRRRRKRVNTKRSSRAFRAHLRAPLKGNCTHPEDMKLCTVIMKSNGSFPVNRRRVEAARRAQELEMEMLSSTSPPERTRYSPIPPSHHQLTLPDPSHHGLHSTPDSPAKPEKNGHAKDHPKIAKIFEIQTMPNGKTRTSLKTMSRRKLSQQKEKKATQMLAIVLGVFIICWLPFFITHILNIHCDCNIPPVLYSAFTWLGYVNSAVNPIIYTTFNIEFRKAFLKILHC
# This list was built around the results that the source calls inconclusive (neither active nor inactive); the mix of calls is not that of the screen. For some assays here: A potency beside an inconclusive call is a rough fit, not a confirmed value. Activity calls are given as the source filed them. Unless noted, the call rests on the fitted dose curve.
# Experiments:
# [1] = p53 small molecule agonists, cell-based qHTS assay with human liver microsomes: qHTS cell viability counter screen (AID 1963579); further: nearly all actives have a fitted effect of over 45% in size; further: potency means the concentration at half of the fitted maximal effect
# How it was run: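 Metabolically activated exposure: compounds, human liver microsomes and NADPH (0.5 mg/mL final apiece) were added to p53RE-bla cells seeded 5 h earlier, left 16 h at 37 C, and then assessed for viability by CellTiter-Glo luminescence.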
# [2] = p53 small molecule agonists, cell-based qHTS assay: qHTS cell viability counter screen (AID 1963581); further: nearly all actives have a fitted effect of over 45% in size; further: potency means the concentration at half of the fitted maximal effect
# How it was run: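 p53RE-bla HCT-116 cells, compounds added 5 h after plating and incubated 16 h at 37 C. Cytotoxicity measured in the same wells as intracellular ATP by CellTiter-Glo luminescence after 30 min at room temperature.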
# [3] = target: Beta-2 adrenergic receptor (Homo sapiens) (UniProt P07550); assay: Adrenergic beta2 receptor (ADRB2) small molecule agonists, cell-based qHTS assay (AID 1963593); conditions: CHO-ADRB2 cells, cAMP HTRF, 30 min; further: potency means the concentration at half of the fitted maximal effect;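 on activation: CHO cells stably overexpressing human ADRB2; on the % scale 0 is the no-effect control and ±100 the full control effect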
# How it was run: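 CHO cells stably over-expressing ADRB2 were plated overnight at 37C, then dosed with compounds plus a stimulation mix containing 100uM IBMX and 25uM Ro-20-1724 for 0.5hr at room temperature. cAMP was measured by HTRF competition, 1hr.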
# [4] = target: 5-hydroxytryptamine receptor 2A (Homo sapiens) (UniProt P28223); assay: 5-hydroxytryptamine receptor 2A (HTR2A) small molecule agonists, cell-based qHTS assay (AID 1963587); further: potency means the concentration at half of the fitted maximal effect; nearly all actives have a fitted effect of over 30% in size
# How it was run: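 CHO cells stably expressing human HTR2A, plated 18 h, loaded with calcium dye 1 h at 37 C. Agonist mode: compounds added and intracellular calcium fluorescence recorded kinetically for 2 min at 1 sec intervals.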
# [5] = cAMP Responsive Elements (CRE) small molecule agonists, cell-based qHTS assay (AID 1963590); conditions: CRE-bla HEK293T, beta-lactamase FRET ratio, 3 h; activation: at 92.4 µM (top of the series) unless noted; further: potency means the concentration at half of the fitted maximal effect
# How it was run: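 CRE-bla HEK 293T cells, 2,000/well in DMEM with 10% dialyzed FBS and 25 mM HEPES, pre-incubated 18 h at 37 C, then exposed to compound 3 h at 37 C. Beta-lactamase reporter read with LiveBLAzer B/G FRET substrate after 2 h at room temperature.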
# [6] = target: Muscarinic acetylcholine receptor M1 (Homo sapiens) (UniProt P11229); assay: Cholinergic receptor muscarinic 1 (CHRM1) small molecule antagonists, cell-based qHTS assay (AID 1963588); further: potency means the concentration at half of the fitted maximal effect; nearly all actives have a fitted effect of over 40% in size
# How it was run: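 CHRM1-CHO calcium-flux assay, antagonist mode. Cells were seeded 18 h, dye-loaded 1 h at 37 C and given compound for 5 min at RT, then acetylcholine was added at 50nM. FDSS fluorescence was read 3 min; 15 concentrations, three runs.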
# [7] = target: D(2) dopamine receptor (Homo sapiens) (UniProt P14416); assay: Dopamine D2 receptor (DRD2) small molecule agonists, cell-based qHTS assay (AID 1963594); conditions: HEK293-DRD2 cAMP HTRF, agonist mode, 30 min; activation: at 92.4 µM (top of the series) unless noted; further: nearly all actives have a fitted effect of over 35% in size; further: potency means the concentration at half of the fitted maximal effect; on activation: on the % scale 0 is the no-effect control and ±100 the full control effect
# How it was run: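 HEK293 cells stably expressing human DRD2, pre-treated with PDE inhibitor Ro20-1724 (0.1 mM final) and compound 10 min at room temperature, then stimulated with NKH477 (200nM […]) for 30 min. cAMP read by HTRF (665/620 nm).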
# [8] = cAMP Responsive Elements (CRE) small molecule antagonists, cell-based qHTS assay (AID 1963591; active means well fitted inhibition curve with a large enough effect in the signal ratio in the repeat runs, not every such curve was filed as active; inconclusive means weak or mixed curves, or effect the other way; the % refers to the signal ratio; further: potency means the concentration at half of the fitted maximal effect; on activity change, negative = inhibition: on the % scale 0 is the no-effect control and ±100 the full control effect); conditions: CRE-bla HEK293T, beta-lactamase FRET ratio; activity change, negative = inhibition: at 92.4 µM (top of the series) unless noted
# How it was run: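 CRE-bla HEK293T cells plated 18 h, then given compound plus NKH477 at 0.25 uM final for 3 h at 37C. Beta-lactamase reporter read with LiveBLAzer B/G FRET substrate after 2 h at room temperature.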
# [9] = target: Beta-2 adrenergic receptor (Homo sapiens) (UniProt P07550); assay: Adrenergic beta2 receptor (ADRB2) small molecule antagonists, cell-based qHTS assay (AID 1963592); conditions: CHO-ADRB2 cells, isoproterenol-stimulated cAMP HTRF ratio, 0.5 h; activity change, negative = inhibition: at 92.4 µM (top of the series) unless noted; further: nearly all actives have a fitted effect of over 50% in size; further: potency means the concentration at half of the fitted maximal effect
# How it was run: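 Cells (CHO, stable ADRB2 overexpression) incubated 18-20hr at 37C; compounds added from DMSO; agonist mix (1nM isoproterenol, 100uM IBMX, 25uM Ro-20-1724) added; 0.5hr RT; d2-cAMP and anti-cAMP-cryptate added; 1hr RT; 665/615 nm read.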
# [10] = target: D(2) dopamine receptor (Homo sapiens) (UniProt P14416); assay: Dopamine D2 receptor (DRD2) small molecule antagonists, cell-based qHTS assay (AID 1963595; active means well fitted inhibition curve with a large enough effect in the signal ratio in the repeat runs, with a control signal flat; inconclusive means weak or mixed curves, or effect the other way; the % refers to the signal ratio; further: on the % scale 0 is the no-effect control and ±100 the full control effect); conditions: HEK293-DRD2 cAMP HTRF antagonist mode; activity change, negative = inhibition: at 92.4 µM (top of the series) unless noted
# How it was run: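 HEK293 cells stably expressing DRD2 were preincubated with 0.1 mM Ro20-1724, then with compound for 10 min at room temperature. Cells were stimulated with 200 nM NKH477 plus 12 nM quinpirole for 30 min, and cAMP was read by HTRF.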
# [11] = p53 small molecule agonists, cell-based qHTS assay (AID 1963582; active means well fitted activation curve with a large enough effect in the signal ratio in the repeat runs, not every such curve was filed as active; inconclusive means weak or mixed curves; the % refers to the signal ratio; further: potency means the concentration at half of the fitted maximal effect); conditions: HCT-116 p53RE-bla reporter, beta-lactamase FRET ratio, 16 h; activation: at 66 µM (top of the series) unless noted
# How it was run: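 p53RE-bla reporter cells, compounds added in DMSO after 5 h plating, incubated 16 h at 37 C. Beta-lactamase read via 2 h room-temperature LiveBLAzer B/G FRET substrate, fluorescence intensity.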
# [12] = target: 5-hydroxytryptamine receptor 2A (Homo sapiens) (UniProt P28223); assay: 5-hydroxytryptamine receptor 2A (HTR2A) small molecule antagonists, cell-based qHTS assay (AID 1963586); further: potency means the concentration at half of the fitted maximal effect; nearly all actives have a fitted effect of over 45% in size
# How it was run: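 Antagonist-mode intracellular calcium assay: DOI (4 nM) added after 5 min compound pre-incubation at room temperature to dye-loaded HTR2A-CHO cells. Fluorescence followed for 3 min, sampled every second.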
# [13] = activation: at 92.4 µM (top of the series) unless noted
smiles,measurement,setting,value
C[C@@H]1C[C@H]2[C@@H]3CCC4=CC(=O)C=C[C@]4(C)[C@@]3(F)[C@@H](O)C[C@]2(C)[C@@]1(O)C(=O)CO,Potency,[1],inactive
same,Potency,[2],"inconclusive: 7.36 µM [cytotoxic, single point]"
same,Potency,[3]; [13],"inconclusive: 69.6 µM [inhibitor, partial curve, poor fit]"
NCCNC(=O)c1ccc(Cl)cn1,Potency,[1],inactive
same,Potency,[2],"inconclusive: 0.05 µM [rising, partial curve, poor fit]"
same,Potency,[4],"inconclusive: 15.1 µM [activator, partial curve, poor fit]"
same,Potency,[5],inconclusive: 0.0007 µM
C[C@@H](C1=C(CCN(C)C)Cc2ccccc21)c1ccccn1,Potency,[1],"inconclusive: 0.89 µM [rising, full curve, poor fit]"
same,Potency,[2],"inconclusive: 0.177 µM [rising, full curve]"
same,Potency,[6],"inconclusive: 0.46 µM [inhibitor, full curve]"
same,activation,[3]; [13],inconclusive: -31.1% [at 42.5 µM]
same,activation,[7],inconclusive: 22.3% [at 42.5 µM]
CCCN(CCC)C(=O)SCC,Potency,[1],inactive
same,Potency,[2],"inconclusive: 53.7 µM [rising, single point]"
same,Potency,[8],inactive
same,Potency,[3]; [13],inactive
Nc1cc(Cl)c(N)c(Cl)c1,Potency,[1],"inconclusive: 45.4 µM [rising, single point]"
same,Potency,[2],inconclusive: 50.9 µM and inactive
same,Potency,[5],inconclusive: 68 µM [fluorescent]
same,Potency,[8],inactive
same,Potency,[9],"inconclusive: 34.4 µM [falling, partial curve]"
same,"activity change, negative = inhibition",[9],inconclusive: -1.67%
same,Potency,[3]; [13],"inconclusive: 68 µM [falling, partial curve, poor fit]"
same,activation,[3]; [13],inconclusive: -59.7%
CC/C=C\C/C=C\C/C=C\CCCCCCCC(=O)OCC,Potency,[1],"inconclusive: 52.5 µM [cytotoxic, single point]"
same,Potency,[2],"inconclusive: 52.5 µM [cytotoxic, single point]"
same,Potency,[5],"inconclusive: 62.5 µM [rising, partial curve]"
same,"activity change, negative = inhibition",[8],inconclusive: 0.558%
same,Potency,[10],inactive
C1CCN(CN2CCCCC2)CC1,Potency,[1],inactive
same,Potency,[2],"inconclusive: 0.913 µM [cytotoxic, single point]"
same,Potency,[7],"inconclusive: 48.6 µM [falling, partial curve, poor fit]"
O,Potency,[1],"inconclusive: 51 µM [cytotoxic, single point]"
same,Potency,[2],"inconclusive: 4.05 µM [rising, full curve, poor fit]"
same,Potency,[5],inactive
same,Potency,[9],inactive
same,activation,[3]; [13],inconclusive: 0.0644%
same,activation,[3]; at 92.4 µM (top of the series),inactive: 18.2%
c1ccc2c(c1)ccc1ccccc12,Potency,[1],"inconclusive: 9.13 µM [cytotoxic, single point]"
same,Potency,[2],"inconclusive: 40.8 µM [rising, single point]"
same,Potency,[4],"inconclusive: 0.0776 µM [activator, single point]"
same,Potency,[8],"inconclusive: 68.6 µM [rising, single point]"
same,Potency,[3]; [13],"inconclusive: 68.6 µM [inhibitor, single point]"
same,activation,[3]; [13],inconclusive: 18%
CCCCCCCC=O,Potency,[1],inactive
same,Potency,[2],"inconclusive: 4.54 µM [rising, single point]"
same,Potency,[3]; [13],"inconclusive: 540 nM [inhibitor, single point] and inactive"
CC[C@@]1(O)C(=O)OCc2c1cc1n(c2=O)Cc2c-1nc1ccccc1c2/C=N/OC(C)(C)C,Potency,[1],"inconclusive: 11.2 µM [rising, partial curve]"
same,Potency,[11],"inconclusive: 15.8 µM [fluorescent, partial curve, poor fit]"
same,Potency,[12],active: 5.79 µM
same,Potency,[5],"inconclusive: 11.9 µM [fluorescent, full curve]"
same,Potency,[8],"inconclusive: 11.9 µM [rising, partial curve]"
same,activation,[3]; [13],inconclusive: -49.9% [at 42.5 µM]
same,Potency,[10],inactive
COc1c2occc2c(OC)c2c(=O)cc(C)oc12,Potency,[1],"inconclusive: 25.1 µM [rising, single point]"
same,Potency,[2],"inconclusive: 22.3 µM [rising, partial curve, poor fit]"
same,"activity change, negative = inhibition",[8],inconclusive: 26.7% [at 42.4 µM]
same,Potency,[3]; [13],inactive
N#Cc1c(F)cccc1F,Potency,[1],inactive
same,Potency,[11],inactive
same,Potency,[12],"inconclusive: 9.42 µM [inhibitor, single point]"
same,Potency,[5],inactive
same,Potency,[8],inactive
same,Potency,[3]; [13],inactive
Cc1ccc2c(c1)c1c3n2CCNC3CCC1 (stereo not drawn),Potency,[1],"inconclusive: 2.81 µM [rising, partial curve, poor fit]"
same,Potency,[2],"inconclusive: 7.07 µM [rising, partial curve]"
same,Potency,[12],active: 18.3 µM
same,activation,[3]; [13],inconclusive: 2.42% [at 42.5 µM]

# 3 entries picked at random from those above, as already listed:
smiles,measurement,setting,value
c1ccc2c(c1)ccc1ccccc12,Potency,[4],"inconclusive: 0.0776 µM [activator, single point]"
O,activation,[3]; [13],inconclusive: 0.0644%
c1ccc2c(c1)ccc1ccccc12,Potency,[2],"inconclusive: 40.8 µM [rising, single point]"
